{"source": "PubChem BioAssay AID1259274 – Sanger Institute – 2017", "aim": "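Kinases RKO cells need to grow, alone or with anchor drugs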 (primary screen)", "cells": "human RKO colorectal cancer cells", "reagent": "siRNA pool against human genes", "challenge": "anchor drugs BYL719 at 1 µM, cetuximab at 5 µg/ml or trametinib at 10 nM; DMSO vehicle as the no-drug arm", "measured": "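Viability as fraction of non-targeting pool 2 control, averaged across replicates, robust z-score for single knock-down, and a combination synergy score per anchor drug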", "reading the numbers": "viability z-score, siRNA alone: higher = more viable cells; low values mean essential gene; viability, siRNA alone, vehicle: higher = more viable cells", "hit rule": "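a single knock-down scoring under -3 on the robust z-score, meaning fewer cells, counts as essential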", "calls": "active = essential when knocked down alone; inactive = no change alone", "note": "Here is one part, drawn at random, of 794 reagents tested. 11 of all reagents (1.4%) were called active. 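Calls rest on knock-down without drug only; synergy scores with anchor drugs were not used for the essential call.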 Viability is capped at 1. Not all columns of the deposit are shown. Not given: the amount of reagent, the time to read-out."}
{"gene knocked down":"GALK2 (GeneID 2585)","viability z-score, siRNA alone":1.09,"viability, siRNA alone, vehicle (fraction of control)":0.991,"call":"inactive"}
{"gene knocked down":"WNK1 (GeneID 65125)","viability z-score, siRNA alone":-1.18,"viability, siRNA alone, vehicle (fraction of control)":0.797,"call":"inactive"}
{"gene knocked down":"ATM (GeneID 472)","viability z-score, siRNA alone":-0.465,"viability, siRNA alone, vehicle (fraction of control)":0.858,"call":"inactive"}
{"gene knocked down":"BUB1 (GeneID 699)","viability z-score, siRNA alone":0.314,"viability, siRNA alone, vehicle (fraction of control)":0.925,"call":"inactive"}
{"gene knocked down":"MAST3 (GeneID 23031)","viability z-score, siRNA alone":0.508,"viability, siRNA alone, vehicle (fraction of control)":0.942,"call":"inactive"}
{"gene knocked down":"STK38L (GeneID 23012)","viability z-score, siRNA alone":-1.13,"viability, siRNA alone, vehicle (fraction of control)":0.801,"call":"inactive"}
{"gene knocked down":"PDK2 (GeneID 5164)","viability z-score, siRNA alone":-0.863,"viability, siRNA alone, vehicle (fraction of control)":0.824,"call":"inactive"}
{"gene knocked down":"PTK6 (GeneID 5753)","viability z-score, siRNA alone":0.186,"viability, siRNA alone, vehicle (fraction of control)":0.914,"call":"inactive"}
{"gene knocked down":"HIPK2 (GeneID 28996)","viability z-score, siRNA alone":-0.714,"viability, siRNA alone, vehicle (fraction of control)":0.837,"call":"inactive"}
{"gene knocked down":"ITPKC (GeneID 80271)","viability z-score, siRNA alone":1.19,"viability, siRNA alone, vehicle (fraction of control)":1,"call":"inactive"}
{"gene knocked down":"MAPK13 (GeneID 5603)","viability z-score, siRNA alone":1.19,"viability, siRNA alone, vehicle (fraction of control)":1,"call":"inactive"}
{"gene knocked down":"CSNK1G3 (GeneID 1456)","viability z-score, siRNA alone":0.353,"viability, siRNA alone, vehicle (fraction of control)":0.928,"call":"inactive"}

Targets above whose target name begins with M or m:
{"gene knocked down":"MAST3 (GeneID 23031)","viability z-score, siRNA alone":0.508,"viability, siRNA alone, vehicle (fraction of control)":0.942,"call":"inactive"}
{"gene knocked down":"MAPK13 (GeneID 5603)","viability z-score, siRNA alone":1.19,"viability, siRNA alone, vehicle (fraction of control)":1,"call":"inactive"}
